Data set [1] is described as follows: Plasma extraction and HPLC analysis in dogs (lutein+zeaxanthin, retinol, α-tocopherol). The data set is classed as in vivo, Beagle dogs. How it is done:
Fifty six female Beagle dogs (17 to 18 months old; average body weight 11.4±0.4 kg) were randomly assigned to be supplemented daily with 0, 5, 10 or 20 mg lutein for 17 weeks. The lutein contained 76.66% lutein and 5.23% zeaxanthin. The lutein supplement was resuspended in soybean oil to the appropriate concentration and 1 mL administered perorally at 0800 h daily. Food (200 g/dog/d) was offered immediately after the lutein supplementation. The basal diet shown in Table 1 below met or exceeded the requirements for all essential nutrients (NRC 1985).
(§1) Blood was collected by jugular venipuncture into heparinized evacuated tubes on weeks 0, 2, 4, 8 and 12 and aliquots used for HPLC analysis and for assessing immune responses.
Plasma was extracted for analysis of lutein, zeaxanthin, retinol and α-tocopherol. Briefly, plasma protein was precipitated by adding an equal volume of ethanol containing 0.1% butylated hydroxytoluene (BHT) (Aldrich Chemical Co., Milwaukee, Wis.). The mixture was extracted with 5 mL of a 1:1 mixture of petroleum ether:anhydrous diethyl ether.
The dried residue was resuspended in mobile phase consisting of a 47:47:6 (v:v:v) mixture of HPLC-grade acetonitrile: methanol: chloroform (Fisher Scientific, Fair Lawn, N.J.). Lutein, zeaxanthin and α-tocopherol were quantitated by comparing the area under the curve whereas retinol was quantitated using peak height. The identity of the eluted compounds was confirmed by comparing their absorption spectrum with that of pure standards. Because baseline separation of lutein and zeaxanthin was not accomplished, plasma concentrations were reported as lutein+zeaxanthin.

Data set [2] is classed as in vivo, Tabby cats. To be noted: cats. As to the method:
as §1
Plasma lutein, retinol and α-tocopherol were analyzed by reverse phase HPLC. Briefly, plasma protein was precipitated with an equal volume of ethanol containing 0.1% butylated hydroxytoluene (BHT) (Aldrich Chemical Co., Milwaukee, Wis.). The mixture was extracted with 5 mi of a 1:1 mixture of petroleum ether:anhydrous diethyl ether and the dried residue resuspended in mobile phase. The mobile phase was a mixture of acetonitrile, methanol and chloroform (47:47:6, v/v/v). The internal standard used was retinyl acetate (Sigma Chem. Co., St. Louis, Mo.). Samples were eluted on a 5 μm C18 reverse phase column (3.9×150 mm; Resolve, Millipore Corp., Milford Mass.) with a flow rate of 1.0 ml/min. The identity of the eluted compounds was verified by comparing their absorption spectra with those of standard compounds.

[3] abbreviates: across all treatments and all periods.

Read-outs that look alike come from different tables or passages of the source.

On to `CC1=C[C@H](O)CC(C)(C)[C@H]1/C=C/C(C)=C/C=C/C(C)=C/C=C/C=C(C)/C=C/C=C(C)/C=C/C1=C(C)C[C@@H](O)CC1(C)C` [lutein], for which the “Effect on plasma retinol and α-tocopherol” value in data set [1] is recorded as “did not influence”. Moreover, in data set [1] (setting [3]), the Plasma retinol average turned out to be 3.63 ± 0.14 µmol/L and the “Plasma α-tocopherol average” value was 37 ± 2 µmol/L. In addition, in data set [2], the “Effect on plasma retinol and α-tocopherol” value was “did not influence”; the Plasma retinol average came out at 0.56 ± 0.03 µmol/L; the “Plasma α-tocopherol average” value was determined as 14.9 ± 0.9 µmol/L.

(Values after US20010006673A1, “LUTEIN- CONTAINING SUPPLEMENT AND PROCESS FOR ENHANCING IMMUNE RESPONSE IN ANIMALS” (priority 1998, published 2001).)
